Values quoted from earlier work as cited in article PMC4667193 (Scientific Reports, 2015).

Test system: rat primary hippocampal cell culture
Settings: rat primary hippocampal cell cultures; cited from earlier work

With `CN1[C@@H]2CC[C@H]1C[C@@H](OC(=O)C(CO)c1ccccc1)C2` (stereo partly shown) [atropine] as the compound, how does the “effect on AEME-induced neurotoxicity” value read?
Its value is “prevented AEME-induced neurotoxicity”.
